Experiment [1] concerns the target T1, PHD2/EGLN1 (HIF-prolyl hydroxylase 2) (human, UniProt Q9GZT9 181-426).
T1 construct: The protein was expressed as a cleavable GST fusion and the eluate of the GST column was used; also called PHD enzyme; PHD protein
Briefly: fluorescence polarization; PHD protein titrated into 200 nM FITC-labeled peptide; normalized bound fraction.

Amino acid sequences for entries named in this document (tags omitted). A change or cut given only in a name is not applied to a line headed by its entry.
UniProt Q9GZT9: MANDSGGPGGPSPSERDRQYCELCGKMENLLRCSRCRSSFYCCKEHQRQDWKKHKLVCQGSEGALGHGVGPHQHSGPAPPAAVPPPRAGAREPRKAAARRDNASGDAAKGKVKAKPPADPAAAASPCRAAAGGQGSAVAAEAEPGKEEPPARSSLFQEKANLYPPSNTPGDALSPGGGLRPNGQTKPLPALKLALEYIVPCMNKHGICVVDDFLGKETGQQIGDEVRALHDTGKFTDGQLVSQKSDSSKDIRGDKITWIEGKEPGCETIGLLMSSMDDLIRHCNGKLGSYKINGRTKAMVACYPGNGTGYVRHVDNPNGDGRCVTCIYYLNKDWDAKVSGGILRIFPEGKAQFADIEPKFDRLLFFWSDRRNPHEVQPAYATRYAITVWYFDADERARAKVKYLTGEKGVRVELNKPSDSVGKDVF

For experiment [2], the target named is T1, PHD2/EGLN1 (HIF-prolyl hydroxylase 2). As to the kind of experiment: fluorescence polarization. Background: Polarisation of emitted light reports the rotation of a fluorescent probe.

1 molecule from patent US20250171821A1, “HIF-1 ACTIVATORS AND USES THEREOF” (Ramot at Tel-Aviv University Ltd., priority 2022, published 2025) can be followed below.

These are yes or no findings as the source states them, for the method shown. Some results given as binding are weak or reduced against the parent protein; the word gives no strength.

As for DLDLEALAPYIPADDDFQLR (FITC label (position not given)) [HIF peptide (FITC-labeled)], the binding result in experiment [1] and in experiment [2] was “binds” in each case.
